Among the data in publication PMC4187101 are Kd values, retold here.

Protein sequences, listed by entry. Tags and fused reporters are not part of them. Lines headed by an entry give the natural chain unless they say otherwise; changes in a name come on top.
UniProt P14385: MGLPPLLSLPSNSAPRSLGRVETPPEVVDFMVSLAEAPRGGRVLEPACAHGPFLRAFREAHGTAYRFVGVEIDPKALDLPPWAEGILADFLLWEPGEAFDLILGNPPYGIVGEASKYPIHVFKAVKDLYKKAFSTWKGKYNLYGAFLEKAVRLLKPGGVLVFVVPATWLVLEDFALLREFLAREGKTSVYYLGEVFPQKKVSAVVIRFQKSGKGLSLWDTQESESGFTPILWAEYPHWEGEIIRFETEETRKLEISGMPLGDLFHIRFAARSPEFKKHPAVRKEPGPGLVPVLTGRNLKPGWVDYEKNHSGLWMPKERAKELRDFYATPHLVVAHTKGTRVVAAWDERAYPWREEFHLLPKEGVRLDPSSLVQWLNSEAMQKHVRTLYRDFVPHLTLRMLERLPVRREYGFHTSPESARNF

Construct, isoform or probe ends are uncertain for at least one entry.

The target in the data set is DNA adenine-N6 methyltransferase M.TaqI (Thermus aquaticus) (UniProt P14385). The experiment in a line: competition, 2-aminopurine fluorescence titration. Conditions: strand 2 A9 = N6-methyl-dA, 20 mM TrisOAc pH 7.9, 10 mM Mg(OAc)2, 50 mM KOAc, 0.01% reduced Triton X-100, with 1 mM DTT (unlocked) or no reducing agent (locked), recombinant protein.

With “GCCGCTCGATGCCG (double strand) [fully methylated duplex 1AMe·2T]”, the dissociation constant Kd (in general, the free concentration of one partner at which half of the binding sites on the other are occupied at equilibrium, for simple one-to-one binding) (strand 1 A9 = N6-methyl-dA) stood at 56 nM. On to “GCCGCTCGATGCCG (double strand) [hemi-methylated target duplex 1A·2T]”, for which the Kd amounted to 2.9 nM.
